Sequences of proteins named here, by UniProt entry; tags and fusion partners are left off. A change or cut given only in a name is not applied to a line headed by its entry.
UniProt O94782: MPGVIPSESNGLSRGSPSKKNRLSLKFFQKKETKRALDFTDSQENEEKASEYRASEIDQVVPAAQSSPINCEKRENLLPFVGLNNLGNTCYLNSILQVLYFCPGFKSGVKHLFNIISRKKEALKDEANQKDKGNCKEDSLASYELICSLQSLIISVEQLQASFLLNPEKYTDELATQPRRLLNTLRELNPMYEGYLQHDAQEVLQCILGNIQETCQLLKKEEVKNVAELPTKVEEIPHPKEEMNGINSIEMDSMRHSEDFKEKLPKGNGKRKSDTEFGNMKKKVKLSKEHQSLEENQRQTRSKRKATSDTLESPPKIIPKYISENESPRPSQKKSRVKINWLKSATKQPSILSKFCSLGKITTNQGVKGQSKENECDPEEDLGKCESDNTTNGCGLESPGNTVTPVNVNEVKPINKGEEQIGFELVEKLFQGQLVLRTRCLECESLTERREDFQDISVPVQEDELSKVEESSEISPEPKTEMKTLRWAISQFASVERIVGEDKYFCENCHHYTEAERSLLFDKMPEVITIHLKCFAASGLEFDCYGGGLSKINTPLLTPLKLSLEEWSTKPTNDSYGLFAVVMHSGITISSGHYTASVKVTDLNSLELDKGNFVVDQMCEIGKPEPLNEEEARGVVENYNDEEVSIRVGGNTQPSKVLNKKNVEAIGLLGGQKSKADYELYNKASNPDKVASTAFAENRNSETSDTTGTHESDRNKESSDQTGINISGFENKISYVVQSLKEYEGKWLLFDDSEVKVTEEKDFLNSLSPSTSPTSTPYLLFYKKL

Several values for one entry are separate records, joined by “and”; a condition that tells them apart may be missing. Equal entries are not always repeated. In all, about 390,000 compounds went through this assay and about 910 (0.23%) were called active. Inconclusive means that the source gave no clear call. Such entries were picked first, then a sample of the others. The call rests on the fitted dose curve; in most records, active means well fitted inhibition curve with a large enough effect; inconclusive means small, poorly fitted or top-dose-only effect; inactive means no such curve, though single readings can be large or run the other way. Potencies of inconclusive entries are doubtful fits and often do not repeat.
Each compound was assayed against Ubiquitin carboxyl-terminal hydrolase 1 (Homo sapiens) (UniProt O94782) (assay: Inhibitors of USP1/UAF1: Primary Screen). Conditions: recombinant USP1/UAF1, Ub-Rhodamine cleavage fluorescence; activity change, negative = inhibition: at 57.1 µM (top of the series).
Summary of the method: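 In this screen, compounds sit with the deubiquitinase complex (1nM) for 15 min at room temperature before Ub-Rho is added at 150nM final. Fluorescence rise is then followed for 6 reads every 60 seconds.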
For `COc1cc(/C=C2\SC(=S)N(N(C)c3ccccc3)C2=O)ccc1O`, the Potency was “inactive”.
For `O=C(Nc1cc(S(=O)(=O)N2CCOCC2)ccc1N1CCCCC1)c1ccccc1Br`, the Potency was “inactive”.
For `S=C(NCCCN1CCOCC1)Nc1ccc(-c2nc3ccccc3[nH]2)cc1`, the Potency was “inactive”.
`O=C(CSc1nc(=O)[nH]c2c1CCC2)NCc1ccc(Cl)cc1` was tested, and the Potency was inconclusive: 10 µM [inhibitor, full curve, poor fit].
With `O=C1c2ccccc2C(=O)N1/N=C/c1ccc(O)c(O)c1O` the Potency was inconclusive: 1.12 µM [inhibitor, partial curve, poor fit].
In the case of `O=C1N=c2ccccc2=C1c1sc(=S)n(NC(=O)c2ccccc2)c1O`, the Potency is reported as “inactive”.
For `Cc1cc(Cl)ccc1NC(=O)CCn1nc(C)c2c(C)n(-c3ccccc3)nc2c1=O`, the Potency was inconclusive: 7.08 µM [inhibitor, single point].
`COc1ccc(-c2oc3ncn4nc(-c5ccccc5Cl)nc4c3c2-c2ccc(OC)cc2)cc1` was tested, and the Potency was inconclusive: 0.398 µM [inhibitor, full curve, poor fit].
In the case of `C/C(=N\Nc1ccc(C(=O)O)cc1)c1ccc(Cl)s1`, the Potency is reported as inconclusive: 50.1 µM [inhibitor, partial curve, poor fit].
For `COC(=O)c1ccc(NC(=O)c2cccc3c2C(=O)N(C2CCCCC2)C3)cc1`, the Potency was inconclusive: 12.6 µM [inhibitor, partial curve, poor fit].
With `COc1ccc(/C=N/NC(=O)c2cc(C34CC5CC(CC(C5)C3)C4)[nH]n2)cc1OC` the Potency was inconclusive: 14.1 µM [inhibitor, partial curve].
For `CN1/C(=C\C(=S)NC(=O)c2ccccc2Cl)C(C)(C)c2ccccc21`, the Potency was “inactive”.
In the case of `COc1ccc(OC)c2sc(N(Cc3cccnc3)C(=O)c3ccc(C(C)=O)cc3)nc12`, the Potency is reported as inconclusive: 12.6 µM [inhibitor, partial curve].
With `COC(=O)C1=C(C)N=c2s/c(=C/c3cccs3)c(=O)n2C1c1ccc(F)cc1` (configuration not stated) the Potency was inconclusive: 44.7 µM [inhibitor, partial curve, poor fit].
With `CNCC(O)c1ccc(O)c(O)c1` (configuration not stated) the Potency was inconclusive: 12.6 µM [inhibitor, partial curve, poor fit].
In the case of `COc1ccc(C2/C=C\CC(NC(=O)OCC3c4ccccc4-c4ccccc43)CC(=O)N2Cc2ccccc2F)cc1` (configuration not stated), the Potency is reported as “inactive”.
In the case of `CCOc1ccc(-c2csc(-c3nc(-c4ccc(Br)s4)cs3)n2)cc1`, the Potency is reported as inconclusive: 2 µM [inhibitor, partial curve].
`O=C(NC1CC(=O)N(c2ccc(F)cc2)C1)C1CCCCC1` (configuration not stated) was tested, and the Potency was inconclusive: 10 µM [inhibitor, partial curve, poor fit].
For `Cc1ccccc1N1CCN(c2ccccc2NC(=O)/C=C\C(=O)O)CC1`, the activity change, negative = inhibition was inconclusive: -27.1% [inhibitor].
`COc1ccc(/C=C/C(=O)c2ccc([N+](=O)[O-])o2)cc1OC` was tested, and the Potency was inconclusive: 39.8 µM [inhibitor, partial curve].
`O=C1C(Cl)=C(N2CCCCCC2)C(=O)N1c1ccccc1Cl` was tested, and the Potency was “inactive”.
`O=c1c2c([N+](=O)[O-])cc([N+](=O)[O-])cc2sn1Cc1ccccc1` was tested, and the Potency was “inactive”.
`COc1ccc(CCN(C)C2CCCN(S(C)(=O)=O)C2)cc1OC` (configuration not stated) was tested, and the Potency was “inactive”.
With `CN(C)c1cccc(C(=O)n2cc(C(=O)c3cc(F)ccc3O)cn2)c1` the Potency was inconclusive: 8.91 µM [inhibitor, full curve, poor fit].
`Cc1ccc2c(=O)cc(C(=O)Nc3ccc(S(=O)(=O)Nc4onc(C)c4C)cc3)oc2c1` was tested, and the Potency was inconclusive: 398 nM [inhibitor, full curve, poor fit] and inconclusive: 44.7 µM [inhibitor, partial curve, poor fit].
For `CC(NC(=O)c1ccc(N2CCCC2)c([N+](=O)[O-])c1)c1ccc(S(N)(=O)=O)cc1` (configuration not stated), the Potency was inconclusive: 0.316 µM [inhibitor, full curve, poor fit].
In the case of `CCOC(=O)C1=C(O)C(=O)N(c2ccc(S(N)(=O)=O)cc2)C1c1ccc(Br)cc1` (configuration not stated), the Potency is reported as “inactive”.
For `CC(=O)N1N=C(c2cccc(NS(C)(=O)=O)c2)CC1c1ccc2c(c1)OCO2` (configuration not stated), the Potency was “inactive”.
With `COCc1nnc(NC(=O)c2ccc(S(=O)(=O)N(C)c3ccccc3)cc2)o1` the Potency was inconclusive: 0.708 µM [inhibitor, full curve, poor fit].
For `COc1ccc(N2CCN(CC(O)COc3ccc(C(C)C)c(C)c3)CC2)cc1` (configuration not stated), the Potency was “inactive”.
With `CC1(CCC(=O)N2CCCC(N3CCN(c4cccc(C(F)(F)F)c4)CC3)C2)CC1` (configuration not stated) the Potency was inconclusive: 35.5 µM [inhibitor, partial curve, poor fit].
For `COc1ccccc1-c1sc2ccccc2c1-c1ccc(Br)nc1`, the Potency was inconclusive: 3.98 µM [inhibitor, full curve, poor fit].
For `O=C(CN1CCN(Cc2ccc(F)cc2Cl)C1=O)NCCCN1CCOCC1`, the Potency was inconclusive: 4.47 µM [inhibitor, single point].
For `CC(Cl)C(=O)NC(=O)NC12CC3CC(CC(C3)C1)C2` (configuration not stated), the Potency was “inactive”.
`CCN1CCc2c(sc3c2c(NCc2ccco2)nc2nnnn23)C1` was tested, and the Potency was inconclusive: 35.5 µM [inhibitor, partial curve].
For `CC(C)Oc1ccc(C(=O)Nc2ccc(N(C)C)cc2)cc1`, the Potency was inconclusive: 35.5 µM [inhibitor, partial curve, poor fit].
With `CC(C)C[C@H](NC(=O)c1nc[nH]c1C(=O)NCC(=O)OCc1ccccc1)C(=O)OC(C)(C)C` the Potency was inconclusive: 44.7 µM [inhibitor, partial curve, poor fit].
`CC(=O)Nc1ccc(NC(=O)Cn2cc3c(n2)CCCC3)cc1` was tested, and the Potency was “inactive”.
For `CN(c1ccc(OCC(=O)N2CCCC2)cc1)S(=O)(=O)c1ccc(Cl)cc1`, the Potency was “inactive”.
`COc1ccc(N=Nc2nc3cc(Br)c(Br)cc3n2C)c(OC)c1` was tested, and the Potency was “inactive”.
`COc1cccc(NC(=O)Cn2nc3c4ccccc4n(Cc4cccc(F)c4)cc-3c2=O)c1` was tested, and the Potency was inconclusive: 7.94 µM [inhibitor, partial curve].
In the case of `Cc1nn(CCC(=O)NCc2ccc(N(C)C)cc2)c(=O)c2nn(-c3ccccc3)c(C)c12`, the Potency is reported as inconclusive: 4.47 µM [inhibitor, partial curve].
Further: nearly all actives have a fitted effect of over 60% in size.
On the % scale 0 is the no-effect control and ±100 the full control effect; potency means the concentration at half of the fitted maximal effect.
